Experiment: peptide synthesis
Settings: conjugation step, C18 RP-HPLC (Betasil) on Agilent 1100

N^αB1-{3-[methoxy(ethoxy)2K]propionyl}insulin
final HPLC purity: >97%

N^αB1-{3-[methoxy(ethoxy)3K]propionyl}insulin
final HPLC purity: >97%

N^αB1-{3-[methoxy(ethoxy)5K]propionyl}insulin
purity (crude or final not stated): 80%

N^εB29-{3-[methoxy(ethoxy)2K]propionyl}insulin
purity (crude or final not stated): 98%

N^εB29-{3-[methoxy(ethoxy)750]proprionyl}insulin
purity (crude or final not stated): 99%
